Ten targets from the supplement of paper PMC6411743 can be followed below.

The chains behind the UniProt entries cited, without tags or fusion partners. Where a name states a change or a piece, a line headed by the entry shows the natural chain unless it says otherwise.
UniProt Q8NCW5: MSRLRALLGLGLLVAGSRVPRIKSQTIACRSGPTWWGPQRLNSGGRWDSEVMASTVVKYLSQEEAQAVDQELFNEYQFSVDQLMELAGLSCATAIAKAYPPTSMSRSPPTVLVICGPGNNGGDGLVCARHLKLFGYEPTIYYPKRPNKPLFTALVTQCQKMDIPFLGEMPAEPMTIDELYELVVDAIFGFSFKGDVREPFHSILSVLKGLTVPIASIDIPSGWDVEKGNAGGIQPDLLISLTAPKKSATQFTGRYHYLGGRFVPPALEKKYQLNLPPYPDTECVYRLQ
UniProt Q92558: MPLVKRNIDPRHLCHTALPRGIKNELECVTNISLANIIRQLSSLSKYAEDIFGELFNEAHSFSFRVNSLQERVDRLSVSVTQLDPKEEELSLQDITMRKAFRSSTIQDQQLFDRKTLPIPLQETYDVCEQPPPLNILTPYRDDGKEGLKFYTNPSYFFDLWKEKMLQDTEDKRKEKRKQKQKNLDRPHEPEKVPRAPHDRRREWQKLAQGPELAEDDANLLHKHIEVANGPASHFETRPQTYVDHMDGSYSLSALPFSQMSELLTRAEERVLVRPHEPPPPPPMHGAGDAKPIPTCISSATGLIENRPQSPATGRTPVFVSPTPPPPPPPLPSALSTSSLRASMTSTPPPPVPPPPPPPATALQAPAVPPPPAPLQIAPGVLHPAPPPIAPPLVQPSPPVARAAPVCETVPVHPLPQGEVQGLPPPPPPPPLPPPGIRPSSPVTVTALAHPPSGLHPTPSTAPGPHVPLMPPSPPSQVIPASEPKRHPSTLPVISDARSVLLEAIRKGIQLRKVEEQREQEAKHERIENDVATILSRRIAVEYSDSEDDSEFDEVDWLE
UniProt Q8TAA3: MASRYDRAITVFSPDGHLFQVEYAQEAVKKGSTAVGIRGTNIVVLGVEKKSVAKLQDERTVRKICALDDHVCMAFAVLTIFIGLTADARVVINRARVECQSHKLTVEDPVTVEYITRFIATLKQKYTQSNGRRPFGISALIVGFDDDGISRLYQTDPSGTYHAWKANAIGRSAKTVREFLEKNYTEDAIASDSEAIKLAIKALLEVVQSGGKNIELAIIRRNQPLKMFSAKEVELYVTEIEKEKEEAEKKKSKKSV
UniProt Q8NFF5: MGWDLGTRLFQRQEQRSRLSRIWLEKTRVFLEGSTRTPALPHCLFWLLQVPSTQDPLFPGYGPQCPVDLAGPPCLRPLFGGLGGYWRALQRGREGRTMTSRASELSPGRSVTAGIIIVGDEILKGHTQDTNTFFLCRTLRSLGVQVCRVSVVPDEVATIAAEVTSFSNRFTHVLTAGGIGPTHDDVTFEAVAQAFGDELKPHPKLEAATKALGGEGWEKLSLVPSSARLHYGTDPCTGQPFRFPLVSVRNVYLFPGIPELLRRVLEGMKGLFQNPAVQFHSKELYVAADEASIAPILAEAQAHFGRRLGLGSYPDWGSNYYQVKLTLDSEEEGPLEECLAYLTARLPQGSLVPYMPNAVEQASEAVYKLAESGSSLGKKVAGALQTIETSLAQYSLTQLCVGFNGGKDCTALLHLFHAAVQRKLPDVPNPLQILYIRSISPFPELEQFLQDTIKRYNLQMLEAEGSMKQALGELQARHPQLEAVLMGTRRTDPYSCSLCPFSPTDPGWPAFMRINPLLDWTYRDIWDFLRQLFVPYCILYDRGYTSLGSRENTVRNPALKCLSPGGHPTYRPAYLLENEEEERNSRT
UniProt Q8NHV4, whole entry: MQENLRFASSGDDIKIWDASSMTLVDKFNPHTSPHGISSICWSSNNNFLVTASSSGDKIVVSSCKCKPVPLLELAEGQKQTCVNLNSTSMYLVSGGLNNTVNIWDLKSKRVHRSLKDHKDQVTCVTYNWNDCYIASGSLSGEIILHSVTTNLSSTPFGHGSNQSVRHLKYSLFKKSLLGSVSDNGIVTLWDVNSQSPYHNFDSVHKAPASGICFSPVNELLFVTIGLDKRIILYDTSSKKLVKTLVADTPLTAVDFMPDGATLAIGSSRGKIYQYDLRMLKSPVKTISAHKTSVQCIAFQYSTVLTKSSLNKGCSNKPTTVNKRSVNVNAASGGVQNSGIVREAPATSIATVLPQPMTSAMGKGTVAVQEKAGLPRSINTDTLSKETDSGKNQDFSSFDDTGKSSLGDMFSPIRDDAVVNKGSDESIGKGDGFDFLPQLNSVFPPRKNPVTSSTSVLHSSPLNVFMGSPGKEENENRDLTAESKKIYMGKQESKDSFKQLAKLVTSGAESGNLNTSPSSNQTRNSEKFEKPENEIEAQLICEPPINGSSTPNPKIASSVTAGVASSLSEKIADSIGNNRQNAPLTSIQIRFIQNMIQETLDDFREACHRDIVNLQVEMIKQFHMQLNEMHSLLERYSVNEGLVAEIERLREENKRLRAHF
UniProt Q8TEA7: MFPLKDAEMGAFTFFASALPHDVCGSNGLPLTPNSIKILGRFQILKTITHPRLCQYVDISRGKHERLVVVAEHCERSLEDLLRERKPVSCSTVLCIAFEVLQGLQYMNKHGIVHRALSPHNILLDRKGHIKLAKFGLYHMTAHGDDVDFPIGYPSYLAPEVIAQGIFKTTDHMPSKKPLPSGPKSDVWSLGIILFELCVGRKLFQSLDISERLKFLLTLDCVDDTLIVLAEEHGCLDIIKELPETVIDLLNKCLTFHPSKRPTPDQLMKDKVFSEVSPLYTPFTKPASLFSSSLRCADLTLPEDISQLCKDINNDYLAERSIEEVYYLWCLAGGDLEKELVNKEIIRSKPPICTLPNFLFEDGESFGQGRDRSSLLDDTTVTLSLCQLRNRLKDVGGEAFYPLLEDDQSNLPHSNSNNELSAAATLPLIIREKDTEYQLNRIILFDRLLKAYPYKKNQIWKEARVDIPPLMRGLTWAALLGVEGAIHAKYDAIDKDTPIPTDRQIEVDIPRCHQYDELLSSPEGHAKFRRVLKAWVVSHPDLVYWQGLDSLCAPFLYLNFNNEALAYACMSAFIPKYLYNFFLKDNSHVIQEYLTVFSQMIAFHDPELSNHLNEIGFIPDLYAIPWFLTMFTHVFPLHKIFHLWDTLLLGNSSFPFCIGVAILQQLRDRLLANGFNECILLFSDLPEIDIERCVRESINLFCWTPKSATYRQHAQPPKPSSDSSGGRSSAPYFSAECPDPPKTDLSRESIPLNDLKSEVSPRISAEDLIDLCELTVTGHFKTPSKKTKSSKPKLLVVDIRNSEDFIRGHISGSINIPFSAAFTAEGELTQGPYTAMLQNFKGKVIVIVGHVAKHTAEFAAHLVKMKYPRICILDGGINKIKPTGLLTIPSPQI
UniProt Q8WUD1: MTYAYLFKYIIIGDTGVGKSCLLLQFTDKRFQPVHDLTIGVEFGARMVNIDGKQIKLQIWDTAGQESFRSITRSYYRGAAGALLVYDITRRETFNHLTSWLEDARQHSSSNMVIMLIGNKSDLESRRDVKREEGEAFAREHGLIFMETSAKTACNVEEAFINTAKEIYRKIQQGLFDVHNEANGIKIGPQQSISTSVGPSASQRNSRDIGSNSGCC
UniProt Q8NG31: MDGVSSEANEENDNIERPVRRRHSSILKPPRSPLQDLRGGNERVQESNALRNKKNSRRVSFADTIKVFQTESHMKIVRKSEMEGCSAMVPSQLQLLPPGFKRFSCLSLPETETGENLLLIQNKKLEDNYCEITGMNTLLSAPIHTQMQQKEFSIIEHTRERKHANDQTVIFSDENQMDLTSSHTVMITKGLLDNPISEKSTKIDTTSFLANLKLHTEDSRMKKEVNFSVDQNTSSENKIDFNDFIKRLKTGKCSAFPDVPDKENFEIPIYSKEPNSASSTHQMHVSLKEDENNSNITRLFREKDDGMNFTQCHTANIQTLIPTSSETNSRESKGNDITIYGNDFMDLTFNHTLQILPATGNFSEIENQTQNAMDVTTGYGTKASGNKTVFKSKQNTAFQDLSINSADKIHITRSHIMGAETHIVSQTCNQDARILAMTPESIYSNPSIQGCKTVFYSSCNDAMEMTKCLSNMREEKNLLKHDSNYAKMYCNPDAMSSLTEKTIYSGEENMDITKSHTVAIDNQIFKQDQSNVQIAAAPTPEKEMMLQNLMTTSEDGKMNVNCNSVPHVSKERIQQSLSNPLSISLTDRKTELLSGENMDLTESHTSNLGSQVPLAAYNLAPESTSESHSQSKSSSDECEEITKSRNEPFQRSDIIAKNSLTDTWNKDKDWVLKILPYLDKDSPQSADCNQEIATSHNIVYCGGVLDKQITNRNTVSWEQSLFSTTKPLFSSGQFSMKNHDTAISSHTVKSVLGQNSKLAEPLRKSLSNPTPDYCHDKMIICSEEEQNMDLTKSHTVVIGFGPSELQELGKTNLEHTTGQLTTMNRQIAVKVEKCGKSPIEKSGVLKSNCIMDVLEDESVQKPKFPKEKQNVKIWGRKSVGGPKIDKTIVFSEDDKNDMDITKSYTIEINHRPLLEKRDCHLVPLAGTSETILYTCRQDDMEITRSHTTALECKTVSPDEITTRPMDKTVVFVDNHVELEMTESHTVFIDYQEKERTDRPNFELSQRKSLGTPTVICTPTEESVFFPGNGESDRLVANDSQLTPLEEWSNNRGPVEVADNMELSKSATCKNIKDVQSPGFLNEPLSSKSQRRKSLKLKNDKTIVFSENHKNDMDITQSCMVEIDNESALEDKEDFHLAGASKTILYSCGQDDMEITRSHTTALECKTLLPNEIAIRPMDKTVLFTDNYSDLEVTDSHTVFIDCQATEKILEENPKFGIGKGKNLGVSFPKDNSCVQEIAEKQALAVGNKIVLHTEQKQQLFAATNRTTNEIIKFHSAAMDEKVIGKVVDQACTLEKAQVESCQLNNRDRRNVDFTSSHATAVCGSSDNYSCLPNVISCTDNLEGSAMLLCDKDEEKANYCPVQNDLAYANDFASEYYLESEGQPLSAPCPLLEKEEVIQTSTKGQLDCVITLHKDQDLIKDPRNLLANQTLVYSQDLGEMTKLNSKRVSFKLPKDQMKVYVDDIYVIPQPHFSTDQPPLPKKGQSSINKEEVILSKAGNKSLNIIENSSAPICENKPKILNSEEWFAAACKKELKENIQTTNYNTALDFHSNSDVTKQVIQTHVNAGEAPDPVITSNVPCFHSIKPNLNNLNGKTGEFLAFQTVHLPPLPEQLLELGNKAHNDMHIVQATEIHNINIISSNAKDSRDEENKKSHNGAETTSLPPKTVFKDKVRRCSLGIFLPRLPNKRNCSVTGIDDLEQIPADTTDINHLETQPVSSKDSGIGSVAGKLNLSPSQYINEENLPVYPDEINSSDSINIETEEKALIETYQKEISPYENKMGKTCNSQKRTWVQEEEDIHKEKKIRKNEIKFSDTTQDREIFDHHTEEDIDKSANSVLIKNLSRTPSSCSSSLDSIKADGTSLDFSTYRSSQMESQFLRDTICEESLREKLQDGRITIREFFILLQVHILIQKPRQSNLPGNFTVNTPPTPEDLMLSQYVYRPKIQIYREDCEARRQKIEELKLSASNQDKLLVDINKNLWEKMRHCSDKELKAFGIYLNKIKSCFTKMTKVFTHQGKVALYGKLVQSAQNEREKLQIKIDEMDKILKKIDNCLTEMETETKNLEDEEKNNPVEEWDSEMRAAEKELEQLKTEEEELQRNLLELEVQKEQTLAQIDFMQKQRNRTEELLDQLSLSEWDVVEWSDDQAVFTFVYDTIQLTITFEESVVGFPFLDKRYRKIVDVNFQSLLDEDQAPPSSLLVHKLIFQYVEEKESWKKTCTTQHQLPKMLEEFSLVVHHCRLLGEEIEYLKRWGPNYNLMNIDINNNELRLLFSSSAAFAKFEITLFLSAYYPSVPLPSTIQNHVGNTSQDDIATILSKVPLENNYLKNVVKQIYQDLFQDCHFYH
UniProt Q8WUX2: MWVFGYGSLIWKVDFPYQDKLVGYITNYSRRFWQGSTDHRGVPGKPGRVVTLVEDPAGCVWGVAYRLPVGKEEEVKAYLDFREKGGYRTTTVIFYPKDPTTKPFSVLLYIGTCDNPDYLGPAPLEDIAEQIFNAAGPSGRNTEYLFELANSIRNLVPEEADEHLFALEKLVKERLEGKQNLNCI

± gives the standard deviation of the averaged measurements. The list shows a part of the results, in another mix than the full data. Most values lie at the level of the controls, where differences are scatter.

Compound in the assay: Nc1ncnc2c1ncn2[C@@H]1O[C@H](COP(=O)(O)OP(=O)(O)NP(=O)(O)O)[C@@H](O)[C@H]1O [adenylyl imidodiphosphate]
The experiment in a line: NP40-soluble protein abundance relative to vehicle (solubility fold change) (ratio); higher = more soluble protein in presence of AMP-PNP. Summed up:
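Data come from three independent experiments in which Dounce-homogenised Jurkat crude lysate was treated at eight concentrations from 0.1 to 10 mM. Treatment ran 10 min at room temperature and then 3 min at 37 °C, after which 0.8% NP40 and benzonase were added for 60 min at 4 °C before ultracentrifugation. The supernatant underwent TMT labelling and LC-MS/MS, and vsn-normalised intensities were expressed as fold change against the detergent-processed vehicle in each replicate.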

Take UniProt Q8NCW5: the NP40-soluble protein abundance is 0.984 ± 0.037 (concentration: 0.1mM) and 0.999 ± 0.071 (concentration: 0.5mM).
Turning to WASF1 (UniProt Q92558), the NP40-soluble protein abundance is 0.985 ± 0.019 (concentration: 0.1mM) and 1.01 ± 0.055 (concentration: 0.5mM).
UniProt Q8NDV3-2|Q8NDV3-3: the NP40-soluble protein abundance (concentration: 0.1mM) worked out at 0.943 ± 0.019 and the NP40-soluble protein abundance (concentration: 0.5mM) stood at 0.971 ± 0.015.
As for UniProt Q8TAA3 and related entries, the NP40-soluble protein abundance (concentration: 0.1mM) is 0.999 ± 0.017 and the NP40-soluble protein abundance (concentration: 0.5mM) was found to be 0.984 ± 0.026.
For UniProt Q8NFF5 and related entries, the NP40-soluble protein abundance by setting is: (concentration: 0.1mM) 1.01 ± 0.014; (concentration: 0.5mM) 0.991 ± 0.024.
With UniProt Q8NHV4 and related entries, the NP40-soluble protein abundance was determined as 0.982 ± 0.027 (concentration: 0.1mM) and 0.9956 ± 0.0058 (concentration: 0.5mM).
On to UniProt Q8TEA7 and related entries, for which the NP40-soluble protein abundance (concentration: 0.1mM) was determined as 0.994 ± 0.05 and the NP40-soluble protein abundance (concentration: 0.5mM) is 0.954 ± 0.042.
As for RAB2B (UniProt Q8WUD1), the NP40-soluble protein abundance (concentration: 0.1mM) is 1.01 ± 0.059 and the NP40-soluble protein abundance (concentration: 0.5mM) was 0.994 ± 0.028.
For UniProt Q8NG31 and related entries, the NP40-soluble protein abundance turned out to be 1.02 ± 0.028 (concentration: 0.1mM) and 0.998 ± 0.045 (concentration: 0.5mM).
With CHAC2 (UniProt Q8WUX2), the NP40-soluble protein abundance by setting is: (concentration: 0.1mM) 1.02 ± 0.029; (concentration: 0.5mM) 0.988 ± 0.021.
